No constants are given. Whether binding was seen depends on the method and setting. Binding seen in cells or lysates may run through a third protein. Some binding calls cover weakened binding; strength is not graded here.

By UniProt entry, the sequences of proteins in these tests, tags left out. Where a name states a change or a piece, a line headed by the entry shows the natural chain unless it says otherwise.
UniProt Q99683: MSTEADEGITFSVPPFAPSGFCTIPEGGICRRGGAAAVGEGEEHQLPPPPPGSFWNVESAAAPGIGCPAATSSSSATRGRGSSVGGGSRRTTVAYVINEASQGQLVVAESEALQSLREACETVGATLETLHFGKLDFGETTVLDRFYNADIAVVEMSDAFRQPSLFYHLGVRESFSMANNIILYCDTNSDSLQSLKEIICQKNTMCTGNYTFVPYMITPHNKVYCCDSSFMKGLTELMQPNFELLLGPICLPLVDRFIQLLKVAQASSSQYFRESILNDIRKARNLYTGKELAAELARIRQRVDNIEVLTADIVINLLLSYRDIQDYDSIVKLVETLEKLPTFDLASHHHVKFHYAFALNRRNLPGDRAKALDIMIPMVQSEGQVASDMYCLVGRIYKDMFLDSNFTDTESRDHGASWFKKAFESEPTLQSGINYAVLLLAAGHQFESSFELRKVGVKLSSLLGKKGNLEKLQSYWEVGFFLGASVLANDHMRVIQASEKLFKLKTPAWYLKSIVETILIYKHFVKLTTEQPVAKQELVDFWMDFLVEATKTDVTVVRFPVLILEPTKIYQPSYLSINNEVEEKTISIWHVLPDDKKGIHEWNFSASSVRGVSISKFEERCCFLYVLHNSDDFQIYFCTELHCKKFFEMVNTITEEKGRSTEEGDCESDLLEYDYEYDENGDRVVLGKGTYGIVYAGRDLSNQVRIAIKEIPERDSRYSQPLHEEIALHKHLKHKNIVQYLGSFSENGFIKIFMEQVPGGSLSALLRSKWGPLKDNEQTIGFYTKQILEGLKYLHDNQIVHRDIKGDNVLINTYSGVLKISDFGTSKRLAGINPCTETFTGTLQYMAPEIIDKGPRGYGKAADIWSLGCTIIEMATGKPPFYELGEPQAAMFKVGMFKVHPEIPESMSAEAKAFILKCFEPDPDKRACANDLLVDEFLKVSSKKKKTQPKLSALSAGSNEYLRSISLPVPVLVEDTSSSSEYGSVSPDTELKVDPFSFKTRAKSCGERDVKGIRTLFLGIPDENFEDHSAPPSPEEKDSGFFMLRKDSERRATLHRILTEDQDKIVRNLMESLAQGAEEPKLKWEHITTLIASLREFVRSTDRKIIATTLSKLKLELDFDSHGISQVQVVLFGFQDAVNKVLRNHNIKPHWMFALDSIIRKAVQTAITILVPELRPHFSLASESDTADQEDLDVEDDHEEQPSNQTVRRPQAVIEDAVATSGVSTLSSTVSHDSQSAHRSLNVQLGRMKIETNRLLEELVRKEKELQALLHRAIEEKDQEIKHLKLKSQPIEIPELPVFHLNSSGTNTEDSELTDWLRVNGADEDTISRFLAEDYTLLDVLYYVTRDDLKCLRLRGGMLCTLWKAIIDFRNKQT
UniProt Q9Y605: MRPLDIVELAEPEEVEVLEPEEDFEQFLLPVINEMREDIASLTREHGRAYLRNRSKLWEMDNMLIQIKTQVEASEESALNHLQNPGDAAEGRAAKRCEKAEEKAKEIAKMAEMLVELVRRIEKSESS

For one experiment, the target named is Flag-ASK1 (UniProt Q99683). Nature of the experiment: co-immunoprecipitation from HEK293 lysate, anti-Flag IP and anti-GFP immunoblot; binding said to be enhanced by H2O2 treatment.
A further experiment deals with Myc-ASK1 (UniProt Q99683). Briefly: co-immunoprecipitation from HEK293 lysate, anti-Flag IP and anti-Myc immunoblot; binding said to be enhanced by H2O2 treatment. In general terms: In western blotting, separated proteins are transferred to a membrane and probed.

With CFP-ABP1 (from UniProt Q9Y605 1-127), the binding result with Flag-ASK1 is “binds”. Flag-ABP1 (from UniProt Q9Y605 1-127): in the experiment with Myc-ASK1, the binding entry is listed as “binds”.

Values taken from US20060240023A1.
